{
  "sequences": {"note": "The chains behind the UniProt entries cited, without tags or fusion partners. Residues count along the entry.", "UniProt P48546, 22-466": "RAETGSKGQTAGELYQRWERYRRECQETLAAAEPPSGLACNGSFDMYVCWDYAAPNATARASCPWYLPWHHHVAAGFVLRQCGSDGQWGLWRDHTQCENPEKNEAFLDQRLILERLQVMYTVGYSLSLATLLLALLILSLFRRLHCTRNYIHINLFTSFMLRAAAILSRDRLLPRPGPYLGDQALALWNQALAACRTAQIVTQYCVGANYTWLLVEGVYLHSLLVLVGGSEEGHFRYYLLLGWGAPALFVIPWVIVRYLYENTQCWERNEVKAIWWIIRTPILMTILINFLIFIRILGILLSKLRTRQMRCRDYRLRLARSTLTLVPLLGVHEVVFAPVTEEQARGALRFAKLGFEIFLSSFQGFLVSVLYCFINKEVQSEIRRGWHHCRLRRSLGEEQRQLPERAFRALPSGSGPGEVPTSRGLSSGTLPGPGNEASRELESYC", "UniProt P43220, 24-463, species assumed": "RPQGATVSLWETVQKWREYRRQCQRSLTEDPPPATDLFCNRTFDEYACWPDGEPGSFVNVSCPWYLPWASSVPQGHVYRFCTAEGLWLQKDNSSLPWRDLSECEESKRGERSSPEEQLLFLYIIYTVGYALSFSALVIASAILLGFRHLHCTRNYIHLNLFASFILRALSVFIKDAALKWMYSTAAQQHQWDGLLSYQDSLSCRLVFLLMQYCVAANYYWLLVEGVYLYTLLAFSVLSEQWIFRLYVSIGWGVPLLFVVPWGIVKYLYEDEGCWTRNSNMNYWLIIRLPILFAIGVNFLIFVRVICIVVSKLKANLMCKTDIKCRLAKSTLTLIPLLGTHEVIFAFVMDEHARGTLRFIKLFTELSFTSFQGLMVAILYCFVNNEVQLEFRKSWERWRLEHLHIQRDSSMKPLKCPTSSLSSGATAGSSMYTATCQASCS"},
  "source": "patent US20250170218A1",
  "about": "“STABLE PHARMACEUTICAL COMPOSITION OF RECEPTOR AGONIST, AND PREPARATION METHOD AND APPLICATION THEREOF” (JIANGSU HANSOH PHARMACEUTICAL GROUP CO., LTD., priority 2022, published 2025)",
  "key": {"[1]": {"molecular_target": "GIP receptor (Homo sapiens, UniProt P48546)"}, "[2]": {"molecular_target": "GLP-1 receptor (Homo sapiens, UniProt P43220)"}},
  "data": [
    {"smiles": "CC[C@H](C)[C@H](NC(=O)[C@H](CCCCN)NC(=O)[C@H](CCC(=O)O)NC(=O)[C@H](CC(C)C)NC(=O)[C@H](Cc1ccc(O)cc1)NC(=O)[C@@H](NC(=O)[C@H](CO)NC(=O)[C@H](Cc1ccc(O)cc1)NC(=O)[C@H](CC(=O)O)NC(=O)[C@H](CO)NC(=O)[C@@H](NC(=O)[C@H](Cc1ccccc1)NC(=O)[C@@H](NC(=O)CNC(=O)[C@H](CCC(=O)O)NC(=O)C(C)(C)NC(=O)[C@@H](N)Cc1ccc(O)cc1)[C@@H](C)O)[C@@H](C)O)[C@@H](C)CC)C(=O)N[C@@H](C)C(=O)N[C@@H](C)C(=O)N[C@@H](CCC(N)=O)C(=O)N[C@@H](CCC(=O)O)C(=O)N[C@@H](Cc1ccccc1)C(=O)N[C@H](C(=O)N[C@@H](CC(N)=O)C(=O)N[C@@H](Cc1c[nH]c2ccccc12)C(=O)N[C@@H](CC(C)C)C(=O)N[C@@H](CC(C)C)C(=O)N[C@@H](C)C(=O)NCC(=O)NCC(=O)N1CCCC1C(=O)N[C@@H](CO)C(=O)N[C@@H](CO)C(=O)NCC(=O)N[C@@H](C)C(=O)N1CCC[C@H]1C(=O)N1CCCC1C(=O)N1CCC[C@H]1C(=O)N[C@@H](CO)C(=O)N[C@@H](CCCCNC(=O)COCCOCCNC(=O)COCCOCCNC(=O)CC[C@H](NC(=O)CCCCCCCCCCCCCCCCCCC(=O)O)C(=O)O)C(N)=O)C(C)C", "note": "(some centres unmarked) [Active ingredient]", "values": [
      {"measurement": "agonistic activity on the GIP receptor", "setting": "[1]", "value": "strong agonistic activity"},
      {"measurement": "agonistic activity on the GLP-1 receptor", "setting": "[2]", "value": "strong agonistic activity"}
    ]}
  ]
}
